## Primary screen of a compound library

The chains behind the UniProt entries cited, without tags or fusion partners.
UniProt E9BF75, entry or part of it: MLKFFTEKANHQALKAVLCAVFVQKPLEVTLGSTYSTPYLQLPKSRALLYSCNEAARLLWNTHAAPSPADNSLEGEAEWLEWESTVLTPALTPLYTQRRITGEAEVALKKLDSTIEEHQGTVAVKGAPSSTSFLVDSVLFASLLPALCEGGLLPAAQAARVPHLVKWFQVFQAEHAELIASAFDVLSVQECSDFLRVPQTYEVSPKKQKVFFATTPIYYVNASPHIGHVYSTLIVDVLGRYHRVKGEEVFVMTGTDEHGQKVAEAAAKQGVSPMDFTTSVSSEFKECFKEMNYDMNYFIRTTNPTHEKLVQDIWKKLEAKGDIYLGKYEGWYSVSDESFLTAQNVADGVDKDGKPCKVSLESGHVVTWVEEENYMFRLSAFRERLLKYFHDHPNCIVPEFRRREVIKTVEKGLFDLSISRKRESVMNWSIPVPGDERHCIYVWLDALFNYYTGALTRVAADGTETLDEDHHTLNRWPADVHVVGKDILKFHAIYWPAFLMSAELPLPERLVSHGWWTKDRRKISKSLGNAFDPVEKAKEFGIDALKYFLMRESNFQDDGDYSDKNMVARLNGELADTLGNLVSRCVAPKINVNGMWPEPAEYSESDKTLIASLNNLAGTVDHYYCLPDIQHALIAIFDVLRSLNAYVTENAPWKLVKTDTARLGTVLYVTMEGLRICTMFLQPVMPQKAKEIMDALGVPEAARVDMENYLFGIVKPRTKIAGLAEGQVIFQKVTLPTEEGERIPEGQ

The values are deposited in ChEMBL (CHEMBL3988442, “University of Dundee, Small-Polar-MMV Screening Library” (2021)).

All values are in %.
The record does not define 0% and 100%; most values in the screen are far below 50% and negative numbers occur (in some assays of this library far below -100).
The compounds are a random part of those screened.

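Methionyl-tRNA synthetase (putative), Leishmania donovani (UniProt E9BF75). Primary screen of methionyl-tRNA synthetase; the read-out is not stated. The test concentration is not given. Values are per cent inhibition. About 68,000 compounds were tested under these conditions; 0.035% (about 24) showed 50% or more at least once.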

* c1nc(CSc2nnc(C3CC3)s2)cs1 | 12.98%
* CCc1nccn1C1CCCN(C(=O)C2=NN(C)C(=O)CC2)C1 (configuration not stated) | 8.282%
* COCC(=O)N1C[C@H]2CNC[C@@]2(C(=O)NCc2cc(C)n[nH]2)C1 | 0.361%
* COc1ccc(CN(CC2CCCO2)C(=O)CN2CCOC2=O)cc1 (configuration not stated) | 10.68%
* Cc1ccc(C(=O)Nc2ccc(S(=O)(=O)/N=C3\CCCN3C)cc2)s1 | 17.49%
* Cc1ccccc1CN1CCN(C(=O)c2cnc(C3CC3)[nH]c2=O)CC1 | 5.46%
* CN1C(=O)CC(C(=O)O)C12CCN(Cc1ccc(Cl)c(Cl)c1)CC2 (configuration not stated) | 10.96%
* O=C(O)CN1CCc2onc(C(c3ccccc3)c3ccccc3)c2C1 | 10.14%
* CN1N=C(C(=O)N2CCCC(CCc3cccc(F)c3)C2)CCC1=O (configuration not stated) | 14.12%
* COC(=O)CC1CSCCN1C(=O)CCc1c(C)nn(C)c1C (configuration not stated) | 12.61%
* O=c1cc2c(nn1CN1CCN(c3cccc(Cl)c3)CC1)CCC2 | 15.35%
* Cn1c(N)c2c(=O)n(C)c(-c3ccc(Cl)cc3Cl)cc2c(C#N)c1=O | 17.89%
* c1ccc(-c2nc(CN3CCCCC3Cn3cncn3)co2)cc1 (configuration not stated) | 13.86%
* CN1CC(c2ccccc2)CC2(CCN(Cc3ncc[nH]3)CC2)C1 (configuration not stated) | 20.85%
* COCCNC(=O)NC1(c2nc(C)no2)CCCCC1 | 14.39%
* CN(Cc1ccsc1)C(=O)CNC(=O)N1CCc2ccccc2C1 | 7.592%
* CCn1ccc(-c2cc(C(=O)O)n3nc(C)c(Cl)c3n2)n1 | 11.05%
* CN1CC(=O)N(c2cnn(C)c2)CC12CCN(C(=O)c1ccsc1)C2 (configuration not stated) | 12.45%
* COCCN1CCOCC12CCN(c1cnccn1)CC2 | 5.195%
* Cc1ccc(CN2CCN(C(=O)C3CCC3)[C@@H]3CS(=O)(=O)C[C@@H]32)cc1C | -1.075%
* COc1ccc(C(C(=O)O)N(C)CCN2CCCC2)cc1F (configuration not stated) | 8.741%
* CN1C(=O)C[C@@H]2[C@@H]1CCN2S(=O)(=O)Cc1ccccc1 | 12.5%
* NC(=O)c1csc(N2CCCC(c3n[nH]c(=O)n3-c3ccccc3)C2)n1 (configuration not stated) | 5.842%
* O=C(CC1COCCN1)N1CCCN(C2Cc3ccccc3C2)CC1 (configuration not stated) | 7.627%
* O=C(c1ccoc1)N1CCO[C@]2(CCC[C@@H]2COCc2cccnc2)C1 | 19.26%
* CCOC(=O)N1CCN(C(=O)c2sc(-c3ccccc3F)nc2C)CC1 | 9.63%
* Cc1nccn1CCCN1CCCC(c2nccn2C)C1 (configuration not stated) | 10.16%
* CN1CC(=O)N(c2cccnc2)CC12CCN(C(=O)C1CCCCC1)C2 (configuration not stated) | 7.95%
* Cc1nc(CN2CCN(c3cc(CCN)ncn3)CC2)cs1 | 11.02%
* c1ccc2nc(CN3CCCC3c3noc(C4CC4)n3)ccc2c1 (configuration not stated) | 30.16%
* COCCN1CCN(CC(O)c2ccc(OC(F)(F)F)cc2)CC1 (configuration not stated) | 16.87%
* O=C(O)CCc1cc2n(n1)CCCN(C(=O)c1cc3ccccc3s1)C2 | 16.72%
* CS(=O)(=O)CCCN(CCc1cccc(F)c1)C1CC1 | 9.657%
* O=S1(=O)c2ccccc2C2(CCN(Cc3cccnc3)C2)N1CC1CC1 (configuration not stated) | 14.43%
* CN(Cc1cnc(N)nc1)C(=O)c1coc(COc2ccccc2)n1 | 3.125%
* CCOc1ccnc(N[C@@H](Cc2ccccc2)C(N)=O)n1 | 8.303%
* O=C(NCCOc1ccc(F)c(F)c1)NCc1ccncc1 | 16.3%
* COc1ccc(C(=O)N(Cc2cnn(C)c2)C(C)C)cc1OC(F)F | 19.83%
* Cc1cccc(-c2ncc(CNC(C)CO)cn2)c1 (configuration not stated) | 10.45%
* CCC(CC)(CNC(=O)NC1CCCC1(C)C)S(C)(=O)=O (configuration not stated) | 18.23%
* COC(=O)C1CN(Cc2cc(F)ccc2Br)CCO1 (configuration not stated) | 14.2%
* COC(=O)c1cccc(C(=O)N2CCN(c3cccc(C)c3C)CC2)n1 | 15.69%
* Cn1cc(CNCCOc2ccc(F)c(F)c2)c(-c2cccnc2)n1 | 10.78%

Repeated from the top, 3 entries:

| compound | inhibition |
|---|---|
| `c1nc(CSc2nnc(C3CC3)s2)cs1` | 12.98% |
| `CCc1nccn1C1CCCN(C(=O)C2=NN(C)C(=O)CC2)C1` (configuration not stated) | 8.282% |
| `COCC(=O)N1C[C@H]2CNC[C@@]2(C(=O)NCc2cc(C)n[nH]2)C1` | 0.361% |